{"source": "PubChem BioAssay AID743121 (NCATS, 2013)", "screen": "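Genes whose silencing strengthens cell killing by camptothecin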 (primary screen)", "cell system": "MDA-MB-231 cells, a human breast cancer line", "knock-down reagent": "single siRNA against human genes, 20 nM siRNA (0.8 pmol per well)", "duration": "120 h (drug added 48 h after transfection, read 72 h later)", "treatment": "camptothecin 20 nM (about EC30) for 72 h; vehicle 0.1% DMSO in parallel plates", "read-out": "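CellTiter-Glo ATP signal, scaled to control siRNA as percent viability; sensitisation given as log2 of untreated divided by camptothecin-treated viability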", "scale": "log2 vehicle/camptothecin viability: higher = stronger sensitisation to camptothecin; viability with camptothecin: higher = more viable cells", "units": "viability with camptothecin in % of control", "rule for the call": "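Active genes have an RSA gene-level p-value below 0.001, computed from the ratios of their separate siRNAs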", "note": "In all, the deposit lists about 26,000 reagents; shown is a part drawn at random. 167 of them (0.63%) were called active. 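Calls are per gene from RSA p-values that are not deposited; an individual active-marked siRNA can sensitise only weakly.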 Reagents against one gene are numbered here. Further read-outs or replicates are left out here."}
The first 3 entries, ahead of the listing:
{"gene":"ERAP1","reagent":1,"log2 vehicle/camptothecin viability":-0.312,"viability with camptothecin":52.4,"Call":"inactive"}
{"gene":"ERAP1","reagent":2,"log2 vehicle/camptothecin viability":0.0121,"viability with camptothecin":61.6,"Call":"inactive"}
{"gene":"ERAP1","reagent":3,"log2 vehicle/camptothecin viability":-0.0361,"viability with camptothecin":68.4,"Call":"inactive"}

Results, repeating the preview:
{"gene":"ERAP1","reagent":1,"log2 vehicle/camptothecin viability":-0.312,"viability with camptothecin":52.4,"Call":"inactive"}
{"gene":"ERAP1","reagent":2,"log2 vehicle/camptothecin viability":0.0121,"viability with camptothecin":61.6,"Call":"inactive"}
{"gene":"ERAP1","reagent":3,"log2 vehicle/camptothecin viability":-0.0361,"viability with camptothecin":68.4,"Call":"inactive"}
{"gene":"ERAP1","reagent":4,"log2 vehicle/camptothecin viability":1.16,"viability with camptothecin":26.9,"Call":"inactive"}
{"gene":"USP9X","reagent":1,"log2 vehicle/camptothecin viability":-0.173,"viability with camptothecin":70.1,"Call":"inactive"}
{"gene":"USP9X","reagent":2,"log2 vehicle/camptothecin viability":0.245,"viability with camptothecin":95.2,"Call":"inactive"}
{"gene":"USP9X","reagent":3,"log2 vehicle/camptothecin viability":-0.332,"viability with camptothecin":59.9,"Call":"inactive"}
{"gene":"USP9X","reagent":4,"log2 vehicle/camptothecin viability":-0.109,"viability with camptothecin":129,"Call":"inactive"}
{"gene":"TUBB1","reagent":1,"log2 vehicle/camptothecin viability":0.39,"viability with camptothecin":66.5,"Call":"inactive"}
{"gene":"TUBB1","reagent":2,"log2 vehicle/camptothecin viability":-0.404,"viability with camptothecin":95,"Call":"inactive"}
{"gene":"TUBB1","reagent":3,"log2 vehicle/camptothecin viability":-0.33,"viability with camptothecin":78.3,"Call":"inactive"}
{"gene":"TUBB1","reagent":4,"log2 vehicle/camptothecin viability":-0.148,"viability with camptothecin":52.6,"Call":"inactive"}
{"gene":"UHRF1","reagent":1,"log2 vehicle/camptothecin viability":-0.278,"viability with camptothecin":76.2,"Call":"inactive"}
{"gene":"UHRF1","reagent":2,"log2 vehicle/camptothecin viability":-0.103,"viability with camptothecin":89.2,"Call":"inactive"}
{"gene":"UHRF1","reagent":3,"log2 vehicle/camptothecin viability":-0.237,"viability with camptothecin":50.7,"Call":"inactive"}
{"gene":"UHRF1","reagent":4,"log2 vehicle/camptothecin viability":0.0439,"viability with camptothecin":18.6,"Call":"inactive"}
{"gene":"OFD1","reagent":1,"log2 vehicle/camptothecin viability":-0.109,"viability with camptothecin":103,"Call":"inactive"}
{"gene":"OFD1","reagent":2,"log2 vehicle/camptothecin viability":1.14,"viability with camptothecin":44.7,"Call":"inactive"}
{"gene":"OFD1","reagent":3,"log2 vehicle/camptothecin viability":-0.422,"viability with camptothecin":77.5,"Call":"inactive"}
{"gene":"OFD1","reagent":4,"log2 vehicle/camptothecin viability":0.000402,"viability with camptothecin":101,"Call":"inactive"}
{"gene":"MYLIP","reagent":1,"log2 vehicle/camptothecin viability":-0.3,"viability with camptothecin":67.5,"Call":"inactive"}
{"gene":"MYLIP","reagent":2,"log2 vehicle/camptothecin viability":-0.554,"viability with camptothecin":76.5,"Call":"inactive"}
{"gene":"MYLIP","reagent":3,"log2 vehicle/camptothecin viability":-0.165,"viability with camptothecin":104,"Call":"inactive"}
{"gene":"CTNNBIP1","reagent":1,"log2 vehicle/camptothecin viability":-0.144,"viability with camptothecin":104,"Call":"inactive"}
{"gene":"CTNNBIP1","reagent":2,"log2 vehicle/camptothecin viability":0.076,"viability with camptothecin":111,"Call":"inactive"}
{"gene":"CTNNBIP1","reagent":3,"log2 vehicle/camptothecin viability":-0.246,"viability with camptothecin":82.2,"Call":"inactive"}
{"gene":"CTNNBIP1","reagent":4,"log2 vehicle/camptothecin viability":0.174,"viability with camptothecin":89,"Call":"inactive"}
{"gene":"HK2","reagent":1,"log2 vehicle/camptothecin viability":-0.334,"viability with camptothecin":98,"Call":"inactive"}
{"gene":"HK2","reagent":2,"log2 vehicle/camptothecin viability":-0.419,"viability with camptothecin":68.2,"Call":"inactive"}
{"gene":"HK2","reagent":3,"log2 vehicle/camptothecin viability":-0.0467,"viability with camptothecin":89.8,"Call":"inactive"}
{"gene":"HK2","reagent":4,"log2 vehicle/camptothecin viability":-0.391,"viability with camptothecin":99.4,"Call":"inactive"}
{"gene":"FEM1A","reagent":1,"log2 vehicle/camptothecin viability":-0.197,"viability with camptothecin":63.8,"Call":"inactive"}
{"gene":"FEM1A","reagent":2,"log2 vehicle/camptothecin viability":-0.178,"viability with camptothecin":59.2,"Call":"inactive"}
{"gene":"FEM1A","reagent":3,"log2 vehicle/camptothecin viability":-0.516,"viability with camptothecin":47,"Call":"inactive"}
{"gene":"PKHD1","reagent":1,"log2 vehicle/camptothecin viability":-0.249,"viability with camptothecin":120,"Call":"inactive"}
{"gene":"PKHD1","reagent":2,"log2 vehicle/camptothecin viability":-0.28,"viability with camptothecin":102,"Call":"inactive"}
{"gene":"PKHD1","reagent":3,"log2 vehicle/camptothecin viability":-0.23,"viability with camptothecin":72.8,"Call":"inactive"}
{"gene":"PKHD1","reagent":4,"log2 vehicle/camptothecin viability":-0.362,"viability with camptothecin":53,"Call":"inactive"}
